Test results: publication PMC7819943, “Rice protein-binding microarrays: a tool to detect cis-acting elements near promoter regions in rice”
This is one part of the list.

Target: T1, OsSMF1 (Oryza sativa, UniProt Q6ZLB0 1-436)
T1 sequence: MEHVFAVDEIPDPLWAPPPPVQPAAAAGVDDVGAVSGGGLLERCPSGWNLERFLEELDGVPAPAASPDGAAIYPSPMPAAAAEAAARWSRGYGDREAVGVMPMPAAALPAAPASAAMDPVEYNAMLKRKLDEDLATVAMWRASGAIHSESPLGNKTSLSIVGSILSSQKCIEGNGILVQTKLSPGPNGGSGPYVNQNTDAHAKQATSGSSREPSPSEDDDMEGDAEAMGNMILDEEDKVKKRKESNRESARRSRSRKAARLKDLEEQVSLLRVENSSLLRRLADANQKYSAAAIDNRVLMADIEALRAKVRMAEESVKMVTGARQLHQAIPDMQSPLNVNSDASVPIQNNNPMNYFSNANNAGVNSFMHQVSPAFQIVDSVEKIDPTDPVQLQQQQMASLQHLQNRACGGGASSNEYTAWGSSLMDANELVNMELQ
Assay: protein-binding microarray (RPBM); PBS, 2% BSA, 51.3 ng/ul salmon testes DNA, 50 uM zinc acetate, 200 nM TF, 25 C, 1 h; high values mean tight binding
Details: protein: recombinant; tags: N-terminal polyhistidine and DsRed monomer fusion (pET32a); chain copies: 2; label: CyDye5-dUTP incorporated in the synthesized complementary strand; 3' TTTTT single-stranded linker to array surface; dsDNA, one strand shown
Outline: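 In PBS with 2% BSA, salmon testes DNA and 50 µM zinc acetate, 200 nM protein was incubated on a custom Agilent array at 25 °C for 1 h and then washed off. The array had been made double-stranded by primer extension with Cy5-dUTP and blocked with 2% BSA. The proteins were transcription factors fused N-terminally to polyhistidine and DsRed, expressed in E. coli BL21-CodonPlus and purified on Ni–NTA. The binding signal is per-feature fluorescence intensity (arbitrary units) from an Axon 4000B scanner.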

| Sequence | binding signal |
| --- | --- |
| TTGGAGTTGTACTAGGTGTTATGACTAGAGTAAGAGTCAGCGGAGTCACCTAGTGCAG | 3520 fluorescence intensity (a.u.) |
| TTTTAAGTCTAATTGCGCCATGATTTAATAATGTGGTGCTCGGAGTCACCTAGTGCAG | 3670 fluorescence intensity (a.u.) |
| ACACATGTCAGATTAATTGATCGCGTGTGCGTGTCTATATCGGAGTCACCTAGTGCAG | 3180 fluorescence intensity (a.u.) |
| CAACAACTCCCCATCAGCATTGCGAAATGCGAACCAGAGCCGGAGTCACCTAGTGCAG | 10200 fluorescence intensity (a.u.) |
| GTAGAGTTTGCGTGCGTGTCAGCGTGTGTTTATAGGAGTGCGGAGTCACCTAGTGCAG | 7300 fluorescence intensity (a.u.) |
| AATCCCCGCACTCCCACTCGTTCGAGCTCCACCAACAACTCGGAGTCACCTAGTGCAG | 4670 fluorescence intensity (a.u.) |
| CATTTAGCCCTGTCAACCATTTGTACAGGCTTTTGTCATACGGAGTCACCTAGTGCAG | 4220 fluorescence intensity (a.u.) |
| TTCTCTCTCCCGGACATCGAACACGATAAGCTTGAAGTCACGGAGTCACCTAGTGCAG | 35000 fluorescence intensity (a.u.) |
| TAGTAACTGATGTGTGTGTGTGTGCAGTCTCCGTGCGTGTCGGAGTCACCTAGTGCAG | 4790 fluorescence intensity (a.u.) |
| CACCGACGCCACCTCACCCGAAGCCGGCCGGAGTGGTCCGCGGAGTCACCTAGTGCAG | 6140 fluorescence intensity (a.u.) |
| CTTTTCCCCGACTAAACACACCCATACTGTCAAAAGGTAACGGAGTCACCTAGTGCAG | 26800 fluorescence intensity (a.u.) |
| AAGCGCAAATGCCGTCACGCCAAATAACCTCACATAGCCCCGGAGTCACCTAGTGCAG | 3630 fluorescence intensity (a.u.) |
| TCATACATGTGTTCAAACATTCGATGTGACACGGTGTAAACGGAGTCACCTAGTGCAG | 3210 fluorescence intensity (a.u.) |
| GAAGTCGACCATGGTCAAAACCTGCCACATCAGTAGAAATCGGAGTCACCTAGTGCAG | 4960 fluorescence intensity (a.u.) |
| CTGGCTACCGTGCGGCCACCTGTACCACTCTAATTCCCTTCGGAGTCACCTAGTGCAG | 3950 fluorescence intensity (a.u.) |
| CCATTGCTTGATGATGCCATCCATGAGTCAGCCGCATGTACGGAGTCACCTAGTGCAG | 11100 fluorescence intensity (a.u.) |
| TCTGTATATCCGTACTACGAGATTTGGTCAAAAGTTGAAACGGAGTCACCTAGTGCAG | 22200 fluorescence intensity (a.u.) |
| GTCCTCCTCCCCTGCGACGACGGCGGCGGCGGCGGCGGTGCGGAGTCACCTAGTGCAG | 3220 fluorescence intensity (a.u.) |
| CCACGCGCTCTATAAGTAGACGGCTCTTCGGCGCGTGTCACGGAGTCACCTAGTGCAG | 3400 fluorescence intensity (a.u.) |
| CCCGCGCGACGTCAGCAAGGCGTTGGCCGGCGTGGTACTGCGGAGTCACCTAGTGCAG | 8080 fluorescence intensity (a.u.) |
| AGTGTTATGTTTGAGTTATACACGTGCAAGTTTTGTGATTCGGAGTCACCTAGTGCAG | 4040 fluorescence intensity (a.u.) |

| Sequence | binding signal |
| --- | --- |
| AGCTGGCGGCTGGCGGGTGGTGGTGGTGGCTGGCGGCGGGCGGAGTCACCTAGTGCAG | 4500 fluorescence intensity (a.u.) |
| GACGTCGTCATCGACGTCATCGGTGTAGTCCAGTTCGGCGCGGAGTCACCTAGTGCAG | 10400 fluorescence intensity (a.u.) |
| TTTAAGTTTGGTTTTGGCGTCTTATGTGTAATGTAATCAACGGAGTCACCTAGTGCAG | 4120 fluorescence intensity (a.u.) |
| GAGCTCCGCCAGTACGAGTACAGACCCAGCTTCGCCGGCGCGGAGTCACCTAGTGCAG | 3580 fluorescence intensity (a.u.) |
| ACCGCCGGTCCACTCACCCCTAACCCTAGCCGCTGCCGCCCGGAGTCACCTAGTGCAG | 4020 fluorescence intensity (a.u.) |
| CACAACTGCACGTATTGCGTCGCCAATGTCATCGCTAACTCGGAGTCACCTAGTGCAG | 4190 fluorescence intensity (a.u.) |
| GTAGTCCTGGTGACTGGTCAAAGTGATGTGTGCATAATCTCGGAGTCACCTAGTGCAG | 5300 fluorescence intensity (a.u.) |
| GTTGCCCACGTCCACCCAATCCTCCTCCATCCACGGCGGCCGGAGTCACCTAGTGCAG | 3700 fluorescence intensity (a.u.) |
| TTTATCAAATATTTTGTTCCAAAGCTTACATAAGCATATGCGGAGTCACCTAGTGCAG | 3320 fluorescence intensity (a.u.) |
| GGCGGCGAGGAGAGTCGCAACGACAGGTCATGGGTGCGGACGGAGTCACCTAGTGCAG | 3790 fluorescence intensity (a.u.) |
| ACCCTGGCTGAATGGTTTAACTCCAGCTGGCAGGCTGGTGCGGAGTCACCTAGTGCAG | 4370 fluorescence intensity (a.u.) |
| TGTGTTCTCAATTTTGCGTGTTCTCAATGACACGTGAACACGGAGTCACCTAGTGCAG | 5630 fluorescence intensity (a.u.) |
| AAAATAGACATCCTGAAACACGTAGTCGCCGTGGCCGTGGCGGAGTCACCTAGTGCAG | 3710 fluorescence intensity (a.u.) |
| CTCGTGAGTCGTGAGACACTGAGGCCGGCCGGCGTACGTGCGGAGTCACCTAGTGCAG | 3340 fluorescence intensity (a.u.) |
| TACTAACACCCACCCGGCCGTGCCGCTGCCGCCGTGTGCCCGGAGTCACCTAGTGCAG | 3580 fluorescence intensity (a.u.) |
| AGCTGTCACCGATTACACGTAGCCGAATTCCTTCCCTGTGCGGAGTCACCTAGTGCAG | 7890 fluorescence intensity (a.u.) |
| TTGGAATGCTGAAATTATTAGGGGACTATTCAAATTGATGCGGAGTCACCTAGTGCAG | 39200 fluorescence intensity (a.u.) |
| CACTCCCGTCCTGAGGCCATCGACGCTTCCCATATAATTTCGGAGTCACCTAGTGCAG | 4070 fluorescence intensity (a.u.) |
| ACCCCTGCGAATATATAATTTCCCCGCGAGGCCGCGAGCCCGGAGTCACCTAGTGCAG | 47700 fluorescence intensity (a.u.) |
| AGATTATGCACATGTCATTGACTCATTCTGAAAGCAAATTCGGAGTCACCTAGTGCAG | 3660 fluorescence intensity (a.u.) |
| TGGCTGTTAAAAGGCCGACTGACGGAGGTCCAACCCTATGCGGAGTCACCTAGTGCAG | 3300 fluorescence intensity (a.u.) |

In a second layout: results already given
Sequence | binding signal
GTAGTCCTGGTGACTGGTCAAAGTGATGTGTGCATAATCTCGGAGTCACCTAGTGCAG | 5300 fluorescence intensity (a.u.)
GTTGCCCACGTCCACCCAATCCTCCTCCATCCACGGCGGCCGGAGTCACCTAGTGCAG | 3700 fluorescence intensity (a.u.)
TTTATCAAATATTTTGTTCCAAAGCTTACATAAGCATATGCGGAGTCACCTAGTGCAG | 3320 fluorescence intensity (a.u.)
GGCGGCGAGGAGAGTCGCAACGACAGGTCATGGGTGCGGACGGAGTCACCTAGTGCAG | 3790 fluorescence intensity (a.u.)
